# Test results published in patent publication US7566808B2, “Management of ophthalmologic disorders, including macular degeneration” (President and Fellows of Harvard College, priority 2004, dated 2009).
# System: A2E formation from all-trans-retinal and ethanolamine
# Test: In vitro A2E formation in the presence of aromatic amine
# Description: 100 mg (355 μmoles) of all-trans-retinal was dissolved in 3 mL followed by the addition of 9.5 μL of glacial acetic acid 9.5 μL of ethanolamine (155 μmoles). This solution was aliquoted into 300 μL fractions. 3-aminoethylbenzoate (15.5 μmoles) was added to the samples at 0, 2, 3.75, 14, 16.25, 18.0833 19.917 23.75 and 48 hrs. […] The solutions were shaken at room temperature for 48 hrs. The solutions were then kept at −80° C. and 15 μL was diluted to 250 μL (methanol). The solutions (15 μL) were then analyzed on a reverse phase (C18-5 μm-4.6 mm×150 mm) column on a linear gradient 85%-96% methanol/water and UV detector at 430 nm to determine the amount of A2E formation. The percent A2E formation was compared to A2E formation at 48 h in the absence of aromatic amine.
structure (smiles),measurement,setting,value
"CCOC(=O)c1cccc(N)c1 [3-aminoethylbenzoate, ethyl 3-aminobenzoate]","A2E Area under the Curve (HPLC, 430 nm)",amine added at 0 hrs,422.5
same,"A2E Area under the Curve (HPLC, 430 nm)",amine added at 2 hrs,920
same,"A2E Area under the Curve (HPLC, 430 nm)",amine added at 3.75 hrs,818.5
same,"A2E Area under the Curve (HPLC, 430 nm)",amine added at 14 hrs,2094
same,"A2E Area under the Curve (HPLC, 430 nm)",amine added at 16.25 hrs,2043
same,"A2E Area under the Curve (HPLC, 430 nm)",amine added at 18.0833 hrs,2515
same,"A2E Area under the Curve (HPLC, 430 nm)",amine added at 19.91667 hrs,2934
same,"A2E Area under the Curve (HPLC, 430 nm)",amine added at 23.75 hrs,2382
same,"A2E Area under the Curve (HPLC, 430 nm)",amine added at 48 hrs,10613
